Test results reported in paper PMC7203112, “Structural basis for the complex DNA binding behavior of the plant stem cell regulator WUSCHEL”.
Where a chain is given by its changes, count along the chain named. The comparison behind a weaker result is the experiment's own reference, which may not be listed here. Where a protein sequence is shown, tags need not be part of it. For part of these data: The exact form of at least one protein or probe is not confirmed. For part of these data: At least one verdict rests on a figure or table, not on a statement of the authors.

Legend:
[1] = target: T1, WUS-HD F85A (Arabidopsis thaliana) (UniProt Q9SB92); assay: EMSA; settings: largely impaired, no distinct shift, probe called 2xTGAA; EMSA: 10 mM Tris-HCl pH 8.0, 75 mM NaCl, 50 ug/ml poly(dI-dC), 1 mM EDTA, 1 mM DTT, 5% glycerol; recombinant protein; residues 34-103; label: Cy5
T1 sequence (looked up): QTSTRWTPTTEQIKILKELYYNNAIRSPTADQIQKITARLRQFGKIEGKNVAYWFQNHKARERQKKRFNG

[2] = target: T2, WUS-HD I66A (Arabidopsis thaliana) (UniProt Q9SB92); assay: EMSA; settings: largely impaired, no distinct shift, probe called 2xTGAA; EMSA: 10 mM Tris-HCl pH 8.0, 75 mM NaCl, 50 ug/ml poly(dI-dC), 1 mM EDTA, 1 mM DTT, 5% glycerol; recombinant protein; residues 34-103; label: Cy5
T2 sequence (looked up): T1 sequence (looked up) with I33A, A52F

[3] = target: T3, WUS-HD R94K (Arabidopsis thaliana) (UniProt Q9SB92); assay: EMSA; settings: no distinct shift; EMSA: 10 mM Tris-HCl pH 8.0, 75 mM NaCl, 50 ug/ml poly(dI-dC), 1 mM EDTA, 1 mM DTT, 5% glycerol; recombinant protein; residues 34-103; label: Cy5
T3 sequence (looked up): T1 sequence (looked up) with A52F, R61K

[4] = target: T4, WUS-HD RRK T35R,S36R,R94K (Arabidopsis thaliana) (UniProt Q9SB92); assay: EMSA; settings: intermediate binding; EMSA: 10 mM Tris-HCl pH 8.0, 75 mM NaCl, 50 ug/ml poly(dI-dC), 1 mM EDTA, 1 mM DTT, 5% glycerol; recombinant protein; residues 34-103; label: Cy5
T4 sequence (looked up): T1 sequence (looked up) with T2R, S3R, A52F, R61K

[5] = target: T5, YFP-WUS-HD (Arabidopsis thaliana) (UniProt Q9SB92); assay: MST; settings: no further loss from spacer; MST: 20 mM Tris-HCl pH 8.0, 75 mM NaCl, 10 mM MgCl2, 0.05% Tween-20, 20 C, 50 nM YFP-WUS; recombinant protein; residues 34-103; protein details: N-terminal His6-YFP, C-terminal StrepII
T5 sequence (looked up): T1 sequence (looked up) with A52F

Q: Does “CATCGTCGTTCATTCAATGGG (double strand) [f_TGAA]” bind [1]?
A: binds more weakly

Q: Does “CATCGTCGTTCATTCAATGGG (double strand) [f_TGAA]” bind [2]?
A: binds more weakly

Q: Does “CATCGTCGTTCATTCAATGGG (double strand) [f_TGAA]” bind [3]?
A: binds more weakly

Q: Does “CATCGTCGTTCATTCAATGGG (double strand) [f_TGAA]” bind [4]?
A: binds more weakly

Q: Does “CGCTTCACTGAACGCC (double strand) [TGAA Head-to-Head 1xSpacing]” bind [5]?
A: binds more weakly

Q: Does “CGCTGAACTTCACGCC (double strand) [TGAA Tail-to-Tail 1xSpacing]” bind [5]?
A: binds more weakly
